Test results: PubChem BioAssay AID651640 (Broad Institute, 2012)
Out of some 350,000 compounds screened, about 6,000 (1.7%) were called active. This list was built around the results that the source calls inconclusive (neither active nor inactive); the mix of calls is not that of the screen. Rule as the data show it: active = CPE inhibition above about 20% (passing the limit was not always enough); inconclusive = no clear call, values can overlap the other calls; tested in BHK-21 cells.

Assay: protection of cells from dengue 2 killing – plate reader, single concentration, primary screen (AID 651640);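 also: 0% = median of neutral control wells and 100% = median of positive control wells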
Conditions: DENV2-infected cells, cytopathic effect rescue, at 9.99 µM, hits give high values

Structure (SMILES)	CPE inhibition
Cn1cnc(S(=O)(=O)N2C[C@H](O)COC[C@@H]3O[C@@H](CC(=O)NC4CCCC4)CC[C@H]32)c1	active: 58.8%
Cc1ccc(S(=O)(=O)NCC(=O)N(CC(=O)NCC2CCCO2)c2cccc(F)c2)cc1 (stereo unspecified)	inconclusive: 27.6%
CNC[C@H]1Oc2ccc(NC(=O)Nc3ccc(F)cc3)cc2CC(=O)N([C@@H](C)CO)C[C@H]1C	inconclusive: 30%
C[C@@H]1CN([C@@H](C)CO)C(=O)c2cc(NC(=O)c3ccccc3)ccc2O[C@@H](C)CCCCO[C@@H]1CN(C)S(=O)(=O)c1ccc(F)cc1	inconclusive: 26.2%
CCOC(=O)C1=CCN(S(=O)(=O)c2ccccc2Cl)C1c1ccc(Cl)c(Cl)c1 (stereo unspecified)	inactive: -4.58%
Cc1noc(C)c1NC(=O)Nc1ccc2c(c1)C(=O)N([C@@H](C)CO)C[C@H](C)[C@H](CN(C)Cc1ccncc1)OCCCC[C@H](C)O2	inconclusive: 31.7%
O=C(NC[C@H]1[C@H](c2ccccc2)[C@@H](CO)N1C(=O)Cc1cccnc1)C1CCC1	inconclusive: 19.9%
CC(=O)OCCN(CCCn1c(-c2ccncc2)nc2ccccc21)c1nc(-c2ccc(C)cc2)cs1	inconclusive: 22.6%
Cc1ccc(/C=N/NC(=O)c2cc3ccccc3cc2O)o1	inconclusive: 38.7%
Oc1ccccc1C(=S)N1CCCC1	inconclusive: 38.8%
Cc1cc(C)cc(N2C(=O)CC(Cn3nc(C)cc3C)C2=O)c1 (stereo unspecified)	inconclusive: 26.5%
Cc1cc(=O)oc2c3c(cc(OCC(=O)N4CCC[C@H]4C(=O)O)c12)OC(C)(C)CC3	inconclusive: 28.6%
O=C(NCCN1CCC(n2c(=O)[nH]c3ccccc32)CC1)c1ccc(F)c(F)c1	inconclusive: 34.4%
COCc1cn(CC[C@H]2CC[C@H](NC(=O)Nc3ccc(OC)cc3)[C@H](CO)O2)nn1	inconclusive: 37.8%
COCC#Cc1ccc2c(c1)O[C@H](CN(C)C(=O)CC1CC1)[C@@H](C)CN([C@H](C)CO)S2(=O)=O	inconclusive: 34.6%
N#C[C@@H]1[C@H](c2ccccc2)[C@H](CO)N1C(=O)Cc1ccccc1	active: 74.5%
CO[C@H]1CN(C)C(=O)c2ccc(NC(C)=O)cc2OC[C@@H](C)N(S(=O)(=O)c2cn(C)cn2)C[C@@H]1C	active: 25.9%
CCc1nc2ccc(C(=O)N(CC)CCN(C)C)cn2c1N(C)CCCc1ccccc1	inconclusive: 27.9%

Single values from above.
In CPE inhibition, Cc1cc(=O)oc2c3c(cc(OCC(=O)N4CCC[C@H]4C(=O)O)c12)OC(C)(C)CC3 shows inconclusive: 28.6%
In CPE inhibition, COCc1cn(CC[C@H]2CC[C@H](NC(=O)Nc3ccc(OC)cc3)[C@H](CO)O2)nn1 shows inconclusive: 37.8%

(cont.)

Structure (SMILES)	CPE inhibition
COc1ccc(/C=C(/NC(=O)c2ccc(OC)c(OC)c2)C(=O)NCCc2c[nH]c3ccccc23)cc1	active: 20.2%
Cc1ccc(S(=O)(=O)Nc2ccc3c(c2)C(=O)N([C@H](C)CO)C[C@@H](C)[C@@H](CN(C)C(=O)C2CCCCC2)OCCCC[C@H](C)O3)cc1	inconclusive: 57.3%
COc1cccc(S(=O)(=O)N2CC3(CN(C(=O)Nc4ccc(F)cc4)[C@H](CO)c4[nH]c5cc(OC)ccc5c43)C2)c1	active: 128%
O=C(Nc1ccccc1N1CCCC1)c1cccc(Cl)c1Cl	inconclusive: 65.6%
C[C@@H]1CN([C@H](C)CO)C(=O)c2cccc(NC(=O)C3CC3)c2O[C@H]1CN(C)S(=O)(=O)c1cccs1	active: 33.6%
COc1cccc(C(=O)N[C@H](C(=O)N2CCC[C@H]2C(=O)NCCc2ccccc2Cl)C2CCCCC2)c1	active: 28.6%
Cc1nn(CCCC(=O)NCCCN2CCN(C)CC2)c(=O)c2c1sc1ccccc12	inconclusive: 44.4%
CC(C)N1CCC(N2CCN(C3CCCCC3)CC2CCO)CC1 (stereo unspecified)	inconclusive: 29.9%
CCOc1ccccc1NC(=O)C1CCCN1S(=O)(=O)c1ccc2c(c1)C(C)(C)C(=O)N2C (stereo unspecified)	inconclusive: 25.6%
O=C(Nc1ccc2c(c1)OCCO2)c1cccc(C(=O)Nc2ccc3c(c2)OCCO3)c1	active: 26%
Cn1c2c(c(=O)n(C)c1=O)C(c1cccc(F)c1)C(C#N)=C(N)O2 (stereo unspecified)	inconclusive: 32.6%
COCCN(CCOC)c1nc(-c2ccc(C)cc2)nc2ccccc12	inconclusive: 21.1%
COc1cccc(C#Cc2ccc3c(c2)[C@H]2[C@H](CCN2S(=O)(=O)c2cccc(OC)c2)[C@H](CO)N3)c1	active: 38%
CC1CCCN(C(=O)c2ccc(S(=O)(=O)Nc3ccccc3Cl)cc2)C1 (stereo unspecified)	active: 83.3%
Cn1ccc2c(-c3cccc(C=O)c3)cc3c(c21)C1CCC3O1 (stereo unspecified)	active: 50.3%
COc1ccc2nc(Cl)c(C#N)cc2c1	inactive: 16.6%
CCCc1cn(CC[C@H]2CC[C@H](NC(=O)C3CCCCC3)[C@H](CO)O2)nn1	inconclusive: 23%
COCCNC(=O)C[C@@H]1CC[C@H]2[C@@H](COC[C@H](O)CN2C(=O)Nc2ccccc2OC)O1	inactive: 16.2%
